Library screening results

The chains behind the UniProt entries cited, without tags or fusion partners.
UniProt E9BF75, entry or part of it: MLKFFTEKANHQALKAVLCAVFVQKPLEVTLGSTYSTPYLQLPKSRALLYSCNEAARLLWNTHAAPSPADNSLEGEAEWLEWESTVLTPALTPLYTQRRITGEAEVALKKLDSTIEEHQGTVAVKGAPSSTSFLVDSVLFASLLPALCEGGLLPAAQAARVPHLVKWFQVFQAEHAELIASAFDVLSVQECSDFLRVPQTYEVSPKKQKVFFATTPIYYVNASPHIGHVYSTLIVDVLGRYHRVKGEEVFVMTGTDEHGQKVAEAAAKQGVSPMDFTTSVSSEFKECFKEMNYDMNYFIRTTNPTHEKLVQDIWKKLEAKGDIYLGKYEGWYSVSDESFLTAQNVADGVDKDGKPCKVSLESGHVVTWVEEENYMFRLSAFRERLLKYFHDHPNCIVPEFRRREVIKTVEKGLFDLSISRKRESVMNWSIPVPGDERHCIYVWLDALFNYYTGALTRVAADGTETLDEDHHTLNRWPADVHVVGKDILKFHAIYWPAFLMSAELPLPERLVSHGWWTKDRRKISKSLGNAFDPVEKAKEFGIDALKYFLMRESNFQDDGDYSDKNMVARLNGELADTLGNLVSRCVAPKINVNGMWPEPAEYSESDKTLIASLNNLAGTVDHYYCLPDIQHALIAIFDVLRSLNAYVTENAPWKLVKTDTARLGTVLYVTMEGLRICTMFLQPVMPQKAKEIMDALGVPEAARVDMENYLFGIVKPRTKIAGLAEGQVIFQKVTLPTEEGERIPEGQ

All values are in %.
The record does not define 0% and 100%; most values in the screen are far below 50% and negative numbers occur (in some assays of this library far below -100).
The compounds are a random part of those screened.
A dash means the value is not listed here; it may have been measured.

A: 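Assay on Mycobacterium tuberculosis, filed only as a heat shock assay from Cornell; the read-out is not stated. The concentration is filed as 10 mM, unlikely as a test dose, so the dose is not known. The record gives no direction; compounds that gave an IC50 in retests scored well above the rest, so higher reads as stronger inhibition. Size under these conditions: about 69,000 compounds, about 930 of them at 50% or above in at least one test.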
B: 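Methionyl-tRNA synthetase (putative), Leishmania donovani (UniProt E9BF75). Primary screen of methionyl-tRNA synthetase; the read-out is not stated. The test concentration is not given. Values are per cent inhibition. Of about 68,000 compounds tested this way, about 24 (0.035%) reached 50% or more in at least one test.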
C: 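Whole-cell assay for inhibitors of Mycobacterium tuberculosis growth, labelled Cornell in the record; the read-out is not stated. The concentration is filed as 10 mM, unlikely as a test dose, so the dose is not known. Higher means stronger inhibition (inferred from two other growth screens of the library). Size under these conditions: about 53,000 compounds, about 900 of them at 50% or above in at least one test.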

compound,A,B,C
CC(C)c1cc(C(=O)N2CC[C@@H](c3ccc4c(c3)OCO4)[C@H](O)C2)[nH]n1,11.18%,6.25%,-
C1CC1c1nsc(N2CCN(C3CC3)CC2)n1,18%,13.3%,11.03%
Cc1nc(CN2CCCC(Nc3ncnc4c3CCC4)C2)no1 (centres unmarked),14.3%,4.696%,-
COc1ncc(NCc2csc(-c3ccco3)n2)cc1C(N)=O,-14.16%,9.218%,-17.31%
c1ccc(CCN2CCCC2c2ccnc(Nc3ncccn3)n2)cc1 (centres unmarked),91.35%,20.25%,-7.853%
COc1cccc2cc(CNC(=O)N3CCS(=O)(=O)CC3)oc12,-37.16%,9.859%,-
COc1cccc(CNCC2CCN(CC(C)O)CC2)c1OC (centres unmarked),21.29%,9.474%,-
COc1no[n+]([O-])c1-c1ccccc1,12.97%,6.636%,17.95%
Cn1nccc1C(=O)N1CCN(C(=O)C2CCC2)[C@@H]2CS(=O)(=O)C[C@@H]21,-,12.85%,-
Clc1ccccc1OC1CCN(CC2CCOC2)CC1 (centres unmarked),-23.82%,15.28%,-9.974%
COc1ccc(OC)c(CNCc2c(C(C)C)nn(C)c2N(C)C)c1,26.79%,20%,-
N#CCCn1nc(C(F)(F)F)c2c1CCCC2,-13.7%,6.757%,-22.61%
Cc1cc2nc(SCC(=O)N3CCCCC3)n(C)c(=O)c2[nH]1,-0.3953%,5.248%,11.04%
Cc1cccc(CN2CCc3ncnc(N4CCN(C)CC4)c3CC2)n1.O=C(O)C(F)(F)F.O=C(O)C(F)(F)F,-30.77%,-,8.509%
O=C(CN1CCOC(Cn2cccn2)C1)NCc1ccco1 (centres unmarked),-12.3%,19.37%,-
O=S(=O)(NCc1ccnc(-n2ccnc2)c1)c1cncc(Cl)c1,-37.08%,13.69%,8.071%
CC1CNC(=O)CCN1Cc1cc(O)c2cccc(F)c2n1 (centres unmarked),-10.5%,4.902%,6.495%
Cc1cc(OC(F)F)c(C(=O)N2CCN(C3CC3)CC2)s1,-20.37%,20.38%,38.8%
O=C1CN(Cc2cc(O)c3cccc(F)c3n2)CCN1C1CCCC1,-7.427%,10.57%,-15.39%
O=C(CC1CCc2ccccc21)N1CCC(O)(c2cccnc2)CC1 (centres unmarked),-5.801%,14.48%,46.12%
COc1ccc2c(c1)OCC(C(=O)NCc1nc3c(s1)CCCC3)C2 (centres unmarked),-21.18%,13.01%,-11.34%
CC(C)N1CCc2c(CNC(=O)c3nccn3C)cncc2C1.Cl.Cl.Cl,1.401%,-,-43.48%
c1ccc2c(c1)ccn2CCCNC1CCOC2(CCOCC2)C1 (centres unmarked),-6.519%,2.09%,-13.82%
CCN(c1ccsc1C(=O)N1CCSCC1)S(=O)(=O)c1ccccc1,-12.14%,10.99%,15.58%
[H][C@]12CCN(c3ncc(F)cn3)C[C@@]1([H])OCCN(C(=O)c1ccco1)C2,-4.93%,-,14.88%
CCOC(=O)c1coc(N2CCN(Cc3cc(C)cc(C)c3)C(=O)C2)n1,-17.02%,19.16%,21.66%
CCCNc1ncc(CN2CCC3(CCNC(=O)CC3)CC2)cn1,-6.278%,-0.2825%,-0.7181%
COC(=O)N1CCN(c2ncnc3nc(C)cc(C)c23)CC1,8.688%,23.99%,-32.85%
O=C1NCCN1C1CCN(Cc2nc(-c3ccoc3)no2)CC1,-15.11%,5.263%,8.005%
Cn1cccc1C(=O)N1CCn2cc(CN3CCCC3)nc2C1,-0.6403%,-5.473%,6.502%
c1ncc2c(n1)CN(Cc1nc(-c3ccc4c(c3)OCO4)no1)CC2,7.806%,21.05%,-
CC(C)OC(=O)N1CCC(Nc2ncc(Br)cn2)CC1,8.931%,-0.4963%,7.388%
Cc1ccsc1CN1CCC2(CC1)CC(OCc1cccnc1)CO2 (centres unmarked),-,9.343%,-
CN(C)C(=O)CCCn1ccc(NCc2ccc(C#N)cc2)n1,-35.77%,10.14%,-
O=C(CN1CCOC(Cn2cccn2)C1)NC1CCN(C2CC2)CC1 (centres unmarked),-24.58%,17.06%,-17.17%
C[C@@H]1CN(C(=O)C2CCS(=O)(=O)CC2)CC[C@@]1(O)C1CCOCC1,-20.84%,6.475%,26.03%
O=C(CC1CC1)N1CCC(O)(CN2CCN(c3ccccc3)CC2)C1 (centres unmarked),-13.36%,6.824%,-15.22%
CCC(O)CN1CCN(C(=O)Cc2ccccc2Cl)CC1 (centres unmarked),-0.3413%,11.58%,-
COc1ncccc1NC(=O)NC(CCCO)c1ccccc1 (centres unmarked),5.199%,12.11%,-3.875%
COC(=O)c1ccc(Cn2nc(C)cc2C)cc1,-11.04%,2.156%,-27.62%
[H][C@]12CC[C@]([H])(CN(C(=O)Cc3ccc(O)c(Cl)c3)C1)N(CCOC)C2=O,-3.969%,-,-9.809%
CN(C)S(=O)(=O)N1C[C@H]2CCC[C@@]2(COc2cccnc2)C1,-,15.33%,-
N#Cc1ccc(N2CCC(c3nc(C(F)(F)F)c[nH]3)CC2)nc1,8.817%,19.51%,18.93%
O=C(NCC1OCCc2cn(CC3CCOCC3)nc21)c1ccncc1 (centres unmarked),-,15.56%,-
Nc1nc2c(c(N3CCN(C(=O)c4cccs4)CC3)n1)CCCC2,-21.6%,10.48%,17.94%
CSCc1cccc(C(=O)N2CCN(CC(C)O)CC2)c1 (centres unmarked),9.466%,6.883%,-18.27%
O=C(c1ccc(C2CCCO2)s1)N1CCCOCC1 (centres unmarked),9.406%,7.829%,-
CCn1c(CN(C)C)nnc1C1CCN(Cc2cnc(C)nc2)CC1,-30.15%,13.38%,11.61%
[H][C@@]12CCN(CC3CC3)C[C@]1([H])OCCN(c1ccsc1)C2=O,5.118%,-,-21.44%
CCOCC(=O)N1C[C@@H](O)[C@H](N(C)Cc2ccc(OC)cc2)C1,-11.56%,13.36%,-26.01%
O=S(=O)(Cc1ccccc1)CC(O)Cn1cccn1 (centres unmarked),-7.147%,13.36%,-30.64%
O=C(O)C(F)(F)F.O=C(c1ccco1)N1CCC2(CCCN(c3ncccn3)C2)C1 (centres unmarked),-20.66%,-,-19.46%
CCN(Cc1ccc2c(c1)OCO2)C(=O)c1ccc(C)[nH]c1=O,-10.03%,11.22%,-
Fc1cccc(-n2ccc(CN3CCCCC3Cn3cncn3)n2)c1 (centres unmarked),13.5%,-1.408%,25.74%
CS(=O)(=O)NCc1cnc2n1CCN(Cc1ccsc1)CC2,-,10.5%,-
O=C(O)C(F)(F)F.O=C(O)C(F)(F)F.[H][C@@]12OCCN(Cc3ccc(F)cc3)[C@@]1([H])CC[C@H]2Oc1ccccn1,-47.78%,-,10.95%
O=C(Cc1cccs1)N1CC[C@H]2[C@@H]1CCC(=O)N2c1cccnc1,-,1.684%,-
COc1ccc(CN2CCC3(CC(=O)N(c4cncnc4)C3)C2)cc1.O=C(O)C(F)(F)F (centres unmarked),-12.31%,-,1.276%
O=C1CCC2(CCCN(CCc3ccccc3)C2)N1Cc1cccnc1 (centres unmarked),-,7.744%,-
CC(C)Cc1nc(OCC(N)=O)c(C#N)c2c1CCC2,-6.498%,5.185%,6.886%
CCCn1c(C)c(CC(=O)NCC(C)O)c2c1CC(C)(C)CC2=O (centres unmarked),2.207%,13.35%,21.56%
Cc1cc2[nH]c(=O)oc2cc1S(=O)(=O)N1C[C@@H](N(C)C)[C@H](C(C)C)C1,13.78%,19.24%,35.62%
COc1cc(N2CCC3(C2)CN(c2cccnc2)C(=O)CN3C)ncn1 (centres unmarked),-5.661%,2.241%,-26.88%
CC1COCCN1Cc1nc(-c2cccc(Br)c2)no1 (centres unmarked),3.145%,-3.268%,1.224%
[H][C@@]12CCN(Cc3ccccn3)C[C@]1([H])[C@@H](CNc1ncccn1)OC2,5.629%,-,27.96%
O=C([C@H]1C[C@H]2OCC[C@H]2N(CCc2ccccc2)C1)N1CCCO1,-,10.95%,-
CCc1cnc(NCc2nc(COC)no2)nc1,-0.4551%,5.292%,-11.77%
[H][C@@]12CCCC[C@]1(O)CCN(C(=O)c1ccc(OC)c(OC)c1)C2,2.152%,-,-29.21%
COc1cccc(OC)c1CC(=O)NC(C#N)c1ccsc1 (centres unmarked),9.262%,6.789%,-11.51%
Cc1cc(C(=O)N2CCCC(N3CCNC3=O)C2)nn1C(C)(C)C (centres unmarked),-19.51%,7.023%,15.87%

8 of the entries, repeated:

* CCN(Cc1ccc2c(c1)OCO2)C(=O)c1ccc(C)[nH]c1=O : A: -10.03%; B: 11.22%
* O=C(Cc1cccs1)N1CC[C@H]2[C@@H]1CCC(=O)N2c1cccnc1 : B: 1.684%
* Cn1cccc1C(=O)N1CCn2cc(CN3CCCC3)nc2C1 : A: -0.6403%; B: -5.473%; C: 6.502%
* O=S(=O)(NCc1ccnc(-n2ccnc2)c1)c1cncc(Cl)c1 : A: -37.08%; B: 13.69%; C: 8.071%
* COC(=O)c1ccc(Cn2nc(C)cc2C)cc1 : A: -11.04%; B: 2.156%; C: -27.62%
* C1CC1c1nsc(N2CCN(C3CC3)CC2)n1 : A: 18%; B: 13.3%; C: 11.03%
* N#Cc1ccc(N2CCC(c3nc(C(F)(F)F)c[nH]3)CC2)nc1 : A: 8.817%; B: 19.51%; C: 18.93%
* CC(C)N1CCc2c(CNC(=O)c3nccn3C)cncc2C1.Cl.Cl.Cl : A: 1.401%; C: -43.48%

Source: ChEMBL document CHEMBL3988442, “University of Dundee, Small-Polar-MMV Screening Library” (2021).